In patent US20240141375A1, “LENTIVIRUS FOR GENERATING CELLS EXPRESSING ANTI-CD19 CHIMERIC ANTIGEN RECEPTOR” (Umoja Biopharma, Inc., priority 2021, published 2024):
For at least one compound, name, drawing or mass did not settle the structure.

Columns and labels:
unstimulated human PBMCs = assay: PBMC transduction (mCherry / αCD19 CAR / 2A peptide expression), flow cytometry; type: cell-based; settings: 10 nM, ~2 weeks; RACR-αCD19 CAR transduced PBMCs
Bead-activated PBMCs = assay: Payload gene order: 2A detection, rapamycin enrichment and expansion of CAR-T cells; type: cell-based; settings: 10 nM; by day 22
Procedure: The aim of this study was to determine the effect of order on the detectability and function of a lentiviral payload comprised of the following functional elements: Frb-RACR, and αCD19-CAR. The Frb-RACR element provides a selective advantage to cells when rapamycin is added to the culture. The αCD19-CAR element provides targeting of T cells to CD19+ target cells. The two elements together create CAR-T cells that enrich with rapamycin and are cytotoxic to CD19+ target cells. Two payload designs evaluated differ only in the order in which elements are expressed in the polycistronic transcript. This study tested functional aspects of the payloads in both orientations to see if differences in expression were affecting 1) payload detection by flow cytometry (2A antibody), 2) CAR-T cell rapamycin response, and 3) CAR-T cell CD19+ cell cytotoxicity.
Two payload designs evaluated: • 1. MND promoter—FRB-P2A-RACRβ-P2A-RACRγ-P2A-CAR (SEQ ID NO: 81) • 2. MND promoter—CAR-P2A-FRB-P2A-RACRβ-P2A-RACRγ (SEQ ID NO: 61)
Expansion of CAR-T cells was measured using cell counts, culture volume, and flow cytometry population frequencies to estimate total CAR-T cells. Gating requirements were different for d15 and 22; however, in each case, un-transduced cells were used as a biological negative control. […]

Raji GFP::ffluc cells = assay: Raji cell co-culture cytotoxicity of transduced PBMCs; type: cell-based; settings: 10 nM rapamycin; MOI=0 cells
human B cell = assay: UB-VV100 dose exploration: B cells, CAR T cells, transgene integration; type: in vivo, human-NSG CD34+ females (mice); settings: 1 mg/kg IP from day 26
healthy human PBMCs = assay: In vitro pharmacology: activation, transduction and rapamycin expansion in healthy donor PBMCs; type: cell-based; settings: UB-VV100 MOI 10; 10 nM rapamycin from day 3

Q: `CO[C@H]1C[C@@H]2CC[C@@H](C)[C@@](O)(O2)C(=O)C(=O)N2CCCC[C@H]2C(=O)O[C@H]([C@H](C)C[C@@H]2CC[C@@H](O)[C@H](OC)C2)CC(=O)[C@H](C)/C=C(\C)[C@@H](O)[C@@H](OC)C(=O)[C@H](C)C[C@H](C)/C=C/C=C/C=C/1C` [rapamycin] was tested. Which “surface expression of the αCD19 CAR after culture with rapamycin” value (unstimulated human PBMCs) did it give?
A: greatly enhanced surface expression of the αCD19 CAR

Q: What about the “rapamycin-driven expansion of CAR-T cells” value (Bead-activated PBMCs) of the same molecule?
A: significant rapamycin-driven expansion of cells

Q: And the “Raji cells in presence of rapamycin without αCD19-CAR” value (Raji GFP::ffluc cells)?
A: diminished

Q: What about the “effect of rapamycin on UB-VV100 activity” value (human B cell) of the same molecule?
A: enhanced UB-VV100 mediated B-cell depletion and expanded the CAR-T cell population

Q: And the “enrichment and proliferation of CAR T cells” value (healthy human PBMCs)?
A: drives enrichment and proliferation of CAR T cells in vitro
